Experimental data as given in the supplement of paper PMC10849652.
This is one part of the list.

Protein sequences, listed by entry. Tags and fused reporters are not part of them. Lines headed by an entry give the natural chain unless they say otherwise; changes in a name come on top.
UniProt Q96RI0: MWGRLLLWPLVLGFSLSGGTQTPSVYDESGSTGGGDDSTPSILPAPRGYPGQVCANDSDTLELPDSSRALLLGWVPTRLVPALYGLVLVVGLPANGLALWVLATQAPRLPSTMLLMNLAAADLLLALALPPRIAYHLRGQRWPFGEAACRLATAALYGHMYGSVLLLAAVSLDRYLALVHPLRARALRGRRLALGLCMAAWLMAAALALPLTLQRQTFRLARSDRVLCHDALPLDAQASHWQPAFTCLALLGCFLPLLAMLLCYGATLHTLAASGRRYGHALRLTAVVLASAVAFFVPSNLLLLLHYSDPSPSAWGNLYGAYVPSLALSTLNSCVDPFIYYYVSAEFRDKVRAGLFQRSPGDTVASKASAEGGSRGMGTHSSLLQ
UniProt Q8IXS8: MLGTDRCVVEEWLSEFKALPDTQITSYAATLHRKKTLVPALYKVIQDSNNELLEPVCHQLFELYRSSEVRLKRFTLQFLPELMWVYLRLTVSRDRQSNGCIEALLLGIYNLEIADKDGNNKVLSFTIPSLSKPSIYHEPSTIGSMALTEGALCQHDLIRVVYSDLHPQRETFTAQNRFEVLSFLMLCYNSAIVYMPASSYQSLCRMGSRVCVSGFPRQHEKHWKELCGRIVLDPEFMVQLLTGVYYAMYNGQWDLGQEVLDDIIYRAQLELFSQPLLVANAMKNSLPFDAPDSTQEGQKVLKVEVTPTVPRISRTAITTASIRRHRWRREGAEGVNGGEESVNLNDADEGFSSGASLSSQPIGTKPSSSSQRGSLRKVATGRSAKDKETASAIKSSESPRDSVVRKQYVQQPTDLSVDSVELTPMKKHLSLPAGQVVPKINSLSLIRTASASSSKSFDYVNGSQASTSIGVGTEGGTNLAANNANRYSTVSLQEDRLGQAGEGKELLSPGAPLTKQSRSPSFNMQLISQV
UniProt P00740, whole entry, looked up: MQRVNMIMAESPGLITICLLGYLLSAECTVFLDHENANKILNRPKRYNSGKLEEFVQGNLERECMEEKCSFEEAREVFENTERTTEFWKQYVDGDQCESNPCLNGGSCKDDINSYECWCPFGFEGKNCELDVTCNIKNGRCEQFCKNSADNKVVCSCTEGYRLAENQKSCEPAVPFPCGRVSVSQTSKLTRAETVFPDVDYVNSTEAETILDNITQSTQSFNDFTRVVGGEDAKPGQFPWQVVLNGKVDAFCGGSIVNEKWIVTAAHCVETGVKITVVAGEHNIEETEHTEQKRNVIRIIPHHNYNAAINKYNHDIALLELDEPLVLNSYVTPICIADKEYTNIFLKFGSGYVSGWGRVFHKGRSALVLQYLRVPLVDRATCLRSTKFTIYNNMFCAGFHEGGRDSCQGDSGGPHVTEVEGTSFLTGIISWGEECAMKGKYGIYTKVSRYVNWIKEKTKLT
UniProt Q92817: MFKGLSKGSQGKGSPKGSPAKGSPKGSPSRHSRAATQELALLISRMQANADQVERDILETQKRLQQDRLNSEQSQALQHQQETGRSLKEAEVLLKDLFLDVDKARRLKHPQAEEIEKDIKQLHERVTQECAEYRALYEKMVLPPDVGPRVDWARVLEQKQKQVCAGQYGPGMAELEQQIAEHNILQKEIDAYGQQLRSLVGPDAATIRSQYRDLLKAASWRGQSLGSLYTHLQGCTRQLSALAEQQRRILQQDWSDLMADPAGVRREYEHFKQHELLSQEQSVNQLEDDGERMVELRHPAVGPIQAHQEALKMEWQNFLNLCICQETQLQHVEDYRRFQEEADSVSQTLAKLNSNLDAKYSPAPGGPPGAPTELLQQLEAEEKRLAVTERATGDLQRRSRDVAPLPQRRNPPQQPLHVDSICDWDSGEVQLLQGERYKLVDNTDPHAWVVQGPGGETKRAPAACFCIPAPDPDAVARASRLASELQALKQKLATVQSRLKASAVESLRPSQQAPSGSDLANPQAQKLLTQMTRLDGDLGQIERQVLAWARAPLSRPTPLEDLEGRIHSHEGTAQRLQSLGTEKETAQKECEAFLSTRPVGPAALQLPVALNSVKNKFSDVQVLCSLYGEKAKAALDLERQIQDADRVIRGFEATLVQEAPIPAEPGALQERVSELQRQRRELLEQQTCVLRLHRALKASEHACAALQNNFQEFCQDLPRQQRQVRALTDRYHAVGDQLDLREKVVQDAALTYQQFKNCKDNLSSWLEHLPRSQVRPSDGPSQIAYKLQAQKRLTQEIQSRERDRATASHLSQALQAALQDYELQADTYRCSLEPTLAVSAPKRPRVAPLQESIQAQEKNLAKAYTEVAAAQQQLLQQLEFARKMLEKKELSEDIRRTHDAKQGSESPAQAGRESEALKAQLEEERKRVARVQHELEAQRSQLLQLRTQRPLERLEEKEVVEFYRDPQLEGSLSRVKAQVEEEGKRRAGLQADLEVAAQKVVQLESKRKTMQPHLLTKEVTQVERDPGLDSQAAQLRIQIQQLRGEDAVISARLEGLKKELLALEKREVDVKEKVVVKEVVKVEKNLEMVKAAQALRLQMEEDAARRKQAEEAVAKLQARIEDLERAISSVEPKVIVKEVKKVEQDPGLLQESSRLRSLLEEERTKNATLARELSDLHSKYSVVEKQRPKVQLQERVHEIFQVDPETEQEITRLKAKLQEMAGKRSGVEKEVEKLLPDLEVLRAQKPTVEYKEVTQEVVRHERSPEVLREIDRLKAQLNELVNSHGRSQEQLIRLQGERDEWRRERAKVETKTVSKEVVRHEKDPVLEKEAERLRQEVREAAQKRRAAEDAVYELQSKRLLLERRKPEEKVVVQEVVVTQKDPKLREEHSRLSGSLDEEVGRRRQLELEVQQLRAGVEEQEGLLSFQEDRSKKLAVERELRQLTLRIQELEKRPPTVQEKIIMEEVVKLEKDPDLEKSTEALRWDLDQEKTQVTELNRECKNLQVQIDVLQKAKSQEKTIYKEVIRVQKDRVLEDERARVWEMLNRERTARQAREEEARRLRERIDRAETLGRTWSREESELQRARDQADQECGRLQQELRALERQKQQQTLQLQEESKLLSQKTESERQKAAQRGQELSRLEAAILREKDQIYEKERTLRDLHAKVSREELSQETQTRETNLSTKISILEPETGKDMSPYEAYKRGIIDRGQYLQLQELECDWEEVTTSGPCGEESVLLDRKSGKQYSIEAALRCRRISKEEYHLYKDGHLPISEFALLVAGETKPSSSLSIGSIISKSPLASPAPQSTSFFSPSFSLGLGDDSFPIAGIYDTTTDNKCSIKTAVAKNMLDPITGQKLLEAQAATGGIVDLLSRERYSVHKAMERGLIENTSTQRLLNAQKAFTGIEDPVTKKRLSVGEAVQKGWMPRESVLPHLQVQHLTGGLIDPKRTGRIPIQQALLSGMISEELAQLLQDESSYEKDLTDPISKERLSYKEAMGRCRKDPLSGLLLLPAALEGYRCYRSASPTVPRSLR
UniProt Q9H2F5, whole entry, looked up: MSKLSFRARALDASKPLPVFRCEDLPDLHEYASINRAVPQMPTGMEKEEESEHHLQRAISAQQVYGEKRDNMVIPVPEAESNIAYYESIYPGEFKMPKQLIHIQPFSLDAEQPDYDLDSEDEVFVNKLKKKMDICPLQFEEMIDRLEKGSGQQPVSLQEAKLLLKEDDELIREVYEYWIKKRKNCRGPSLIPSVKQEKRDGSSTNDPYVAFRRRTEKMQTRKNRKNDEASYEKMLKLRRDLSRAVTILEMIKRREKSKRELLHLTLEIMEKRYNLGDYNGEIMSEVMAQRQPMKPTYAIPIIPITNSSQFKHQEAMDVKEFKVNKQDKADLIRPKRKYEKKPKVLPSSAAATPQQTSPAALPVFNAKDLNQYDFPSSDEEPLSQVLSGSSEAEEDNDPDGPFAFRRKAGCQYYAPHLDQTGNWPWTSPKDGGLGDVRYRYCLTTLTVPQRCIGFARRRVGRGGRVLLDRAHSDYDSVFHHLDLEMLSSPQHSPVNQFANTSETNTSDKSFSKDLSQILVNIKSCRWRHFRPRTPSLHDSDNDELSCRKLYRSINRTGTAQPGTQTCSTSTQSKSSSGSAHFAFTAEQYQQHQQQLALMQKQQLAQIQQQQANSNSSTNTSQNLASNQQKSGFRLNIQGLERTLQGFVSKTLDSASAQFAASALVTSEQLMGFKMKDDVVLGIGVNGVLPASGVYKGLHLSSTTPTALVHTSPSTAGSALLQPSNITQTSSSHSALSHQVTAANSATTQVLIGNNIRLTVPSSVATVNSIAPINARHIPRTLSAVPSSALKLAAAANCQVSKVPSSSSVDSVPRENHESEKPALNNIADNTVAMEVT
UniProt P50548: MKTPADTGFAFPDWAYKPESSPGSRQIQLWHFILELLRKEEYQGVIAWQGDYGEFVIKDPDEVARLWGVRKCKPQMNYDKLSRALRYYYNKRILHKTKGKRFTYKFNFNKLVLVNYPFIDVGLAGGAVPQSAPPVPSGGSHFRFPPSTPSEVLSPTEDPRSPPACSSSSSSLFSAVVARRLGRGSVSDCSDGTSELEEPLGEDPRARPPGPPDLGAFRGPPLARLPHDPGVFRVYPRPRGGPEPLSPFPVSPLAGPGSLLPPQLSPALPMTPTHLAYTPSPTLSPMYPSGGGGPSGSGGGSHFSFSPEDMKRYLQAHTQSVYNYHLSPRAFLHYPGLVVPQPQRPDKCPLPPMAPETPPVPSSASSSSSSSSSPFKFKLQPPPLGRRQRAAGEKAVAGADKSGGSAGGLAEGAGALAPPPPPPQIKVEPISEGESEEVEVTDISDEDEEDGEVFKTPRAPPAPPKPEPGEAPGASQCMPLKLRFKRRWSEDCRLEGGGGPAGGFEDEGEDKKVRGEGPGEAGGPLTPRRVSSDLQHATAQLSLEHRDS
UniProt Q8IXR5: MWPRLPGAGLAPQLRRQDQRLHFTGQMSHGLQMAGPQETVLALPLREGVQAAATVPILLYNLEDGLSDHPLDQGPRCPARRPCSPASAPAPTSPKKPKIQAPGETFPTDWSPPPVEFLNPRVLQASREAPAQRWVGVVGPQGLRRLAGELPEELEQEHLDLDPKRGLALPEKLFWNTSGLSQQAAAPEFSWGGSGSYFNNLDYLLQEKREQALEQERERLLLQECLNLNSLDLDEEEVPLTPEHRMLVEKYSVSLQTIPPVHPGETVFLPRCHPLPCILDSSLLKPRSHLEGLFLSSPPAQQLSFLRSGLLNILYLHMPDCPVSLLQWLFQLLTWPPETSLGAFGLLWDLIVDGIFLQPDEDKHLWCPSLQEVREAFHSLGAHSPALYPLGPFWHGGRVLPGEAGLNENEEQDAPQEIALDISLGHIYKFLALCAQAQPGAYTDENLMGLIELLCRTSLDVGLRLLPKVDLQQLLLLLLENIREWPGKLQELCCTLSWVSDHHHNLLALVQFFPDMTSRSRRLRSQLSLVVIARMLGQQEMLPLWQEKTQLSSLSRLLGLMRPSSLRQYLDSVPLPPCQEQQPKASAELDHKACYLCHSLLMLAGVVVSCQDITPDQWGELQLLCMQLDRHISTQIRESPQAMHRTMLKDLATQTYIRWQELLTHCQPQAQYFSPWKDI

Key:
Assay in all cases: log2 fold change, soluble protein after heating vs DMSO (PISA); higher = thermal stabilisation; K562 cells, 10 uM, 30 min; active = over 0.2 and 3.5 SD of the protein, either way, in both replicates (recomputed)
zotarolimus = compound: CO[C@H]1C[C@@H]2CC[C@@H](C)[C@@](O)(O2)C(=O)C(=O)N2CCCC[C@H]2C(=O)O[C@H]([C@H](C)C[C@@H]2CC[C@H](n3cnnn3)[C@H](OC)C2)CC(=O)[C@H](C)/C=C(\C)[C@@H](O)[C@@H](OC)C(=O)[C@H](C)C[C@H](C)/C=C/C=C/C=C/1C [zotarolimus]
Summary of the method: (§1)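 For each measurement, 10 μM compound was applied for 30 min to K562 cells at 2×10^6 cells/mL. Aliquots were heated for 3 min across 48°C-58°C, pooled, and extracted in PBS with 0.5% NP-40 at 4°C; the supernatant after 21,000xg for 90 min was soluble protein. This was quantified by TMTpro 16plex LC-MS/MS with channel sums equalised, and thermal stability was reported relative to control samples from duplicates, on a log2 fold-change scale.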

idasanutlin = compound: COc1cc(C(=O)O)ccc1NC(=O)[C@@H]1N[C@@H](CC(C)(C)C)[C@](C#N)(c2ccc(Cl)cc2F)[C@H]1c1cccc(Cl)c1F [idasanutlin]
Summary of the method: as §1

[1] = compound: COc1cc2nc(-c3cc(F)ccc3O)nc(N[C@@H]3CNC[C@H]3C(C)(C)O)c2cc1OC
Summary of the method: as §1

lapatinib = compound: CS(=O)(=O)CCNCc1ccc(-c2ccc3ncnc(Nc4ccc(OCc5cccc(F)c5)c(Cl)c4)c3c2)o1 [lapatinib]
Summary of the method: as §1

gefitinib = compound: COc1cc2ncnc(Nc3ccc(F)c(Cl)c3)c2cc1OCCCN1CCOCC1 [gefitinib]
Summary of the method: as §1

pictilisib = compound: CS(=O)(=O)N1CCN(Cc2cc3nc(-c4cccc5[nH]ncc45)nc(N4CCOCC4)c3s2)CC1 [pictilisib]
Summary of the method: as §1

alisertib = compound: COc1cc(Nc2ncc3c(n2)-c2ccc(Cl)cc2C(c2c(F)cccc2OC)=NC3)ccc1C(=O)O [alisertib]
Summary of the method: as §1

[2] = compound: COc1cccc2cc(-c3nc([C@H]4CC[C@H](C(=O)O)CC4)n4ncnc(N)c34)[nH]c12
Summary of the method: as §1

filanesib = compound: CON(C)C(=O)N1N=C(c2cc(F)ccc2F)S[C@@]1(CCCN)c1ccccc1 [filanesib]
Summary of the method: as §1

Measured: log2 fold change

F2RL3 (UniProt Q96RI0)
inactive: zotarolimus -0.075 | idasanutlin -0.017 | [1] 0.017 | lapatinib 0.029

FAM126B (UniProt Q8IXS8)
inactive: idasanutlin -0.07 | [1] -0.091 | gefitinib -0.01 | lapatinib -0.098 | pictilisib 0.104

F9 (UniProt P00740)
inactive: zotarolimus -0.218 | idasanutlin 0.021 | [1] 0.068 | gefitinib 0.184 | lapatinib -0.021

F13B (UniProt P05160)
inactive: zotarolimus 0.09

Copied from the entries so far (3 entries):
FAM126B (UniProt Q8IXS8)
inactive: idasanutlin -0.07 | [1] -0.091 | gefitinib -0.01 | lapatinib -0.098 | pictilisib 0.104

F9 (UniProt P00740)
inactive: zotarolimus -0.218 | idasanutlin 0.021 | [1] 0.068 | gefitinib 0.184 | lapatinib -0.021

F13B (UniProt P05160)
inactive: zotarolimus 0.09

More results

FAM171A2 (UniProt A8MVW0)
inactive: pictilisib 0.007

ERAP2 (UniProt Q6P179)
inactive: alisertib 0.353 | [1] 0.204 | gefitinib 0.146 | [2] 0.08 | lapatinib -0.049

F2R (UniProt P25116)
inactive: zotarolimus -0.132 | idasanutlin 0.038 | [1] -0.232 | lapatinib -0.065 | pictilisib -0.154

EVPL (UniProt Q92817)
inactive: filanesib 0.151 | alisertib 0 | gefitinib 0.118 | [2] 0.219 | pictilisib 0.463

EPHB4 (UniProt P54760)
inactive: filanesib 0.134 | alisertib -0.017 | [1] 0.395 | lapatinib 0.08
active: [2] -0.937

EPC1 (UniProt Q9H2F5)
inactive: alisertib -0.132 | [2] -0.195

ESYT2 (UniProt H7BXI1)
inactive: filanesib -0.165 | idasanutlin -0.085 | alisertib -0.154 | [1] 0.011 | gefitinib -0.02 | [2] 0 | lapatinib -0.09

ERF (UniProt P50548)
inactive: filanesib 0.328 | pictilisib 0.148

FAM178B (UniProt Q8IXR5)
inactive: pictilisib 0.055
